Results as given in US12258425B2, “Peptide compositions and methods of use” (priority 2015, dated 2025).
At least one compound was matched to its structure with a doubt left. Where a SMILES comes first, the peptide text is derived from it.

Columns and labels:
[1] = pH-solubility titration (visual: precipitate, turbidity, viscosity, gel); format: physicochemical
Procedure: Compound 1 obtained as a trihydrochloride salt, as described in Example 1, and was screened for aqueous solubility at different pHs, by carrying out pH titrations according to the following protocol. In some cases Met-12 was run through an identical experimental procedure to determine its solubility pH profile under the same conditions.
Compound 1 (10 mg) was dissolved in water (270-900 ? L) in a 2 mL clear plastic centrifuge tube with vortexing to give a pH ˜2.4 solution. […] This solution was then diluted with the appropriate amount of cosolvent or other excipient (sugar, surfactant etc.) to produce a clear acidic solution of 10 mg of Compound 1 in […] of the test solution at room temperature ([…]). Small aliquots of a basic solution (usually sodium hydroxide 1.0 M or 0.1 M, but sometimes other bases when investigating buffers) were added using a microliter syringe. Between additions the solution was mixed by vortexing, and the solution was inspected visually for precipitates of various types, turbidity, as a likely sign of microprecipitates, and viscosity to detect gel formation. pH measurements were taken at all these observation points. Some experiments titrated from the endogenous low pH to pH 10, but later titrations were not carried much above pH 7, or sometimes even lower.

[2] = Drug recovery after filtration through 0.2 micron filter; format: physicochemical; conditions: 1 mg/mL in 3% PS-20/3% PG and 2% PX/2% PG at pH 4
[3] = test system: FasL-induced caspase 8 activation in 661W cells; experiment: Blockade of FasL-induced caspase 8 activation in 661W cells; format: cell-based
Source text: Cell Culture. The 661W photoreceptor cell line was generously provided by Muayyad Al-Ubaidi (Department of Cell Biology, University of Oklahoma Health Sciences Center, Oklahoma City, OK). The 661W cell line is a photoreceptor line that has been immortalized by the expression of SV40-T antigen under control of the human interphotoreceptor retinol-binding protein (IRBP) promoter (Al-Ubaidi et al.,J Cell Biol., 119(6):1681-1687 (1992), herein incorporated by reference in its entirety). 661W cells express cone photoreceptor markers, including blue and green cone pigments, transducin, and cone arrestin (Tan et al., Invest Ophtholmol Vis Sci., (3):764-768 (2004), herein incorporated by reference in its entirety), and can undergo caspase-mediated cell death (Kanan et al., Invest Ophthalmol Vis Sci., 48(1):40-51 (2007), herein incorporated by reference in its entirety).
The 661W cell line was maintained in Dulbecco's modified Eagle's medium containing 10% fetal bovine serum, 300 mg/L glutamine, 32 mg/L putrescine, 40 μL/L β-mercaptoethanol, 40 μg/L hydrocortisone 21-hemisuccinate, and 40 μg/L progesterone. The media also contained penicillin (90 U/mL) and streptomycin (0.09 mg/mL). Cells were grown at 37° C. in a humidified atmosphere of 5% CO2 and 95% air.
Activity Assays. Caspase 3, caspase 8 and caspase 9 activities were measured with colorimetric tetrapeptide cleavage assay kits, per the manufacturer's instructions (BioVision, Mountain View, Calif). Total (661W/retinal) protein was extracted as per a previously published protocol (Zacks et al., IOVS, 44(3):1262-1267 (2003), herein incorporated by reference in its entirety). […] Absorbance was measured at 405 nm in a microplate reader (Spectra-MAX 190, Molecular Devices, Sunnyvale, Calif). […]
661W cells were treated with a FasL. […] Activity of caspase 8 measured in 661W cell lysates increased with increasing concentration of FasL, peaking with the 500 ng/ml dose. 661W cells were treated with 500 ng/ml FasL and measured activity levels at various time points. […]

[4] = test system: photoreceptor cells in the detached portion of the retina; experiment: Rat retinal detachment model, TUNEL count of apoptotic cells; format: in vivo, rats; conditions: some of the disclosed formulations
Procedure: Briefly, rodents were anesthetized with a 50:50 mix of ketamine (100 mg/mL) and xylazine (20 mg/mL), and pupils were dilated with topical phenylephrine (2.5%) and tropicamide (1%). A 20-gauge microvitreoretinal blade (Walcott Scientific, Marmora, NJ) was used to create a sclerotomy 2 mm posterior to the limbus, carefully avoiding lens damage.
Under direct visualization through an operating microscope, a subretinal injector (Glaser, 32-gauge tip; BD Ophthalmic Systems, Sarasota, FL) was introduced through the sclerotomy into the vitreous cavity and then through a peripheral retinotomy into the subretinal space. Sodium hyaluronate (10 mg/mL) was slowly injected to detach the neurosensory retina from the underlying retinal pigment epithelium.
In all experiments, approximately one-third to one-half of the superonasal neurosensory retina was detached. In all animals, detachments were created in the same location to allow for direct comparison of retinal cell counts. Detachments were created in the left eye, leaving the right eye as the control. […]
After three days rats were euthanized, retinas were excised, fixed, sectioned, and stained for TUNEL assays. Areas of detached retina were counted for number of apoptotic cells. Each experiment involved 4 fields from each of 4 sections obtained from 5 or 6 retinas for each dosing group.

CC[C@H](C)[C@H](NC(=O)[C@H](Cc1ccc(O)cc1)NC(=O)[C@H](CC(N)=O)NC(=O)[C@@H](NC(=O)[C@H](C)NC(=O)CNC(=O)[C@H](CC(C)C)NC(=O)[C@H](Cc1ccc(O)cc1)NC(=O)[C@@H](NC(=O)[C@H](Cc1cnc[nH]1)NC(=O)[C@@H](N)Cc1cnc[nH]1)[C@@H](C)CC)C(C)C)C(=O)N[C@@H](Cc1ccc(O)cc1)C(N)=O [Compound 1, His-His-Ile-Tyr-Leu-Gly-Ala-Val-Asn-Tyr-Ile-Tyr-NHz] (H-HHIYLGAVNYIY-NH2)
pH above which further signs of precipitation appear ([1]; 0.5% Poloxamer 407): > 4.5 pH
pH at which some turbidity ([1]; 0.5% Poloxamer, 10% PG): 3.45 pH
pH until which low viscosity ([1]; 0.5% Poloxamer, 10% PG): 6 pH
pH below which fibrils were produced ([1]; 1% PS-20 with 10% PG): < 3 pH
pH until which no other signs of precipitation ([1]; 1% Polysorbate 20): 3.76 pH
pH to which clear mobile solution ([1]; 2% Poloxamer 10% PG): 5.74 pH
pH above which no longer a clear solution ([1]; 2% Poloxamer 407): > 5.6 pH
pH until which no other signs of precipitation ([1]; 3% Polysorbate 20): 4.14 pH
pH to which clear mobile solution ([1]; 3% Polysorbate 20 with 10% PG): 5.3 pH
pH below which fibril formation was seen ([1]; 3% and 1% Polysorbate 20): < 2.5 pH
pH above which other signs of precipitation appear ([1]; 4% Poloxamer 407): > 6.2 pH
pH to which clear solution ([1]; 4% Poloxamer, 10% PG): ≥ 5.36 pH
pH by which some precipitation occurred ([1]; 10% PG and 3% PS-80): 3.4 pH
pH to which clear solution ([1]; 10% PG and 3% PS-80): 3.16 pH
pH above which material began to precipitate ([1]; 10% PG and 10% PS-80): > 5.13 pH
pH to which clear solution with low viscosity ([1]; 10% PG and 10% PS-80): 4.94 pH
pH above which appreciable viscosity sets in ([1]; 10% PG and 10% Polysorbate 20): > 7 pH
pH range where a second phase was present ([1]; 10% Poloxamer 407): 5-9 pH
pH at which fibrils were observed ([1]; 10% Polysorbate 20): 3.2 pH
pH to which clear mobile solutions (with some fibrils) ([1]; 10% Polysorbate 20): 7 pH
pH until which no signs of turbidity or gelling ([1]; 10% Polysorbate 20): 7.14 pH
pH above which the clear solution becomes appreciably viscous ([1]; 10% Polysorbate 80): > 6.36 pH
pH above which no longer clear and of acceptable viscosity ([1]; 10% Tyloxapol, 10 mg in 900 μL): above 5.87 pH
lowest pH at which fibrils appeared ([1]; 35% PG and 3% PS-80): 2.66 pH
pH at which aggregates were seen ([1]; 35% PG and 3% PS-80): 3.48 pH
pH of appreciable viscosity ([1]; 35% PG, 10% PS-80): 4.05 pH
pH of gelling ([1]; 35% PG, 10% PS-80): 5.71 pH
pH of gel formation ([1]; 70% DMSO): ~5.5 pH
pH at which gelled ([1]; 70% PG and 10% Polysorbate 80): 5.25 pH
pH by which the solution became viscous ([1]; 70% PG and 10% Polysorbate 80): 3.4 pH
pH at which viscosity set in ([1]; 70% PG, 3% PS): 4.6 pH
pH by which a gel ([1]; 70% PG, 3% PS): 5.25 pH
pH of onset of gelling ([1]; 70% Propylene glycol): ~4.7 pH
pH above which gelled ([1]; Povidone K30): > 4.0 pH
pH at which a viscous solution was produced ([1]; Povidone K30): 3.60 pH
pH to which a clear mobile solution persists ([1]; aqueous solution titrated with sodium hydroxide): ~3.3 pH
pH range where viscosity and signs of aggregation were seen ([1]; titration with Tris, histidine, sodium citrate, sodium borate or sodium phosphate): 2.6-2.9 pH
Loss of API upon filtration [2]: no loss of API upon filtration
Potency relative to Met-12 by 1C50 ([3]; 661W cells, both in DMSO): 10 fold
Potency relative to Met-12 by concentration of maximal inhibition ([3]; 661W cells, both in DMSO): approximately 3 fold
Potency gain at blocking FasL (or retinal detachment)-induced apoptosis in photoreceptor cells ([3]; in vitro and in vivo efficacy experiments): 3->10
Efficacious level relative to Met-12 (lower by) [4]: more than 10 fold
